Laboratory results as given in PMC5996148.
The other results are listed elsewhere or left out. For some of these results: Construct or isoform of the protein are uncertain.

Protein sequences, listed by entry. Tags and fused reporters are not part of them.
UniProt P30530, whole entry: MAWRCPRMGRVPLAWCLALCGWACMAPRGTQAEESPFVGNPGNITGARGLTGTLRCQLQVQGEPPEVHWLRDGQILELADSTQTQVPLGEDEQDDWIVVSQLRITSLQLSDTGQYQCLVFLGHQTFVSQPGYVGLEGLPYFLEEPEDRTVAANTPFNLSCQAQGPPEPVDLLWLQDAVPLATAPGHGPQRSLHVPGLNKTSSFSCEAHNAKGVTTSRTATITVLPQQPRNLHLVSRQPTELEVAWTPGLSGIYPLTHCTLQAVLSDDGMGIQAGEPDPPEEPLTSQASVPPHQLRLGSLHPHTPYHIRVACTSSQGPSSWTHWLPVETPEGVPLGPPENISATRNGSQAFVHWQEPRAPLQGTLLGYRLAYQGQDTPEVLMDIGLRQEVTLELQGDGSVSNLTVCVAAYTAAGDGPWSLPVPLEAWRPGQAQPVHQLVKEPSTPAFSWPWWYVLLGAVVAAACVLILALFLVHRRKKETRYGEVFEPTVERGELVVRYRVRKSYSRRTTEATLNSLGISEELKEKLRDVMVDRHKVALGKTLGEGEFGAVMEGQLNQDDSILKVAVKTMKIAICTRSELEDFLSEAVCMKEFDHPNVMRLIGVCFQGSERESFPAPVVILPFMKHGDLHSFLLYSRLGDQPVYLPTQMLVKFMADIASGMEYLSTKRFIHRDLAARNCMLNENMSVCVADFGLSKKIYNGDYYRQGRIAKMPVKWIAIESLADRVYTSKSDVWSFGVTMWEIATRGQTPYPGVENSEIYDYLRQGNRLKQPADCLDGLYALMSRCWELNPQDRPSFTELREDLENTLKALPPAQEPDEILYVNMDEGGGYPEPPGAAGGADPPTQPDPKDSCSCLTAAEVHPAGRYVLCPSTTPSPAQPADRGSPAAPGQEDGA

Assays:
Experiment in all cases: protein microarray (ProtoArray v5.0), streptavidin-Alexa Fluor 647
Details in all cases: 3'-biotin; 20 mM Tris (pH 7.5), 5 mM MgCl2, 100 mM KCl, 0.1% Tween-20, A/T-rich and random oligonucleotide blockers; temperature not stated; high values mean tight binding
[1] = system: ATP-dependent RNA helicase A (human)
[2] = system: ATP-dependent RNA helicase DHX8 (human)
ATP5C1 = biological target: T1, ATP5C1 (UniProt P36542)
T1 sequence: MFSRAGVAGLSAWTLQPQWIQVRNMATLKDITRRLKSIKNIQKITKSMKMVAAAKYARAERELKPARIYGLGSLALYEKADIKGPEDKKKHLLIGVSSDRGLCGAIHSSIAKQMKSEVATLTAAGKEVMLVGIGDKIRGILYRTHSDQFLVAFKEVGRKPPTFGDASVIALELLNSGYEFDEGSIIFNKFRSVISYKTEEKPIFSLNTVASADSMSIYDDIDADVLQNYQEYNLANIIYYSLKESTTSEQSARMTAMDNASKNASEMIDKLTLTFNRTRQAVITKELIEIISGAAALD

ATP5O = biological target: T2, ATP5O (UniProt P48047)
T2 sequence: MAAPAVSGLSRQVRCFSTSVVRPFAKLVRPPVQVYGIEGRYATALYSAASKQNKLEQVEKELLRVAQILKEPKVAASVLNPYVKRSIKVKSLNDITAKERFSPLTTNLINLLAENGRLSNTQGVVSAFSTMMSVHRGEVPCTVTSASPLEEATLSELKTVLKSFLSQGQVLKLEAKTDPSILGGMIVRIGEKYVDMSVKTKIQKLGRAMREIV

ATP6V1B1 (human) = system: ATP6V1B1 (human)
ATXN3 (human) = system: ATXN3 (human)
AXL = AXL (UniProt P30530)
AZIN1 (human) = system: AZIN1 (human)
[3] = system: Acyl carrier protein, mitochondrial (human)
[4] = system: Adenylate kinase isoenzyme 4, mitochondrial (human)

Sequence: GGGGACAGGGGTATGGGGAGGGG [G4-3 biotinylated (CtG)]
- binding signal [1]: -0.301 z-score
- binding signal [2]: 3.32 z-score
- binding signal (ATP5C1): -0.316 z-score
- binding signal (ATP5O): 3.33 z-score
- binding signal (ATP6V1B1 (human)): -0.325 z-score
- binding signal (ATXN3 (human)): -0.312 z-score
- binding signal (AXL): -0.326 z-score
- binding signal (AZIN1 (human)): -0.308 z-score
- binding signal [3]: -0.332 z-score
- binding signal [4]: -0.332 z-score
